Measurements from US9539219B2, “Pharmaceutical compositions of carotenoid chylomicrons” (HEALTH-EVER BIOTECH CO. LTD, priority 2013, dated 2017).
Some results were stated once for a whole list of compounds, not compound by compound. For at least one compound, name, drawing or mass did not settle the structure.

Assay: Stability during storage at 4° C. or 25° C. for 3 months or heating at 100° C. for 4 h
Assay type: physicochemical
Conditions: micelle; 4° C. or 25° C. for 3 months or 100° C. for 4 h
Experimental: Likewise, when chylomicron was stored at pH 2.0, 3.5, 6.0, 6.8 and 7.4 for 1, 2, 4, 6, 12 or 24 h, the stability of solanorubin, octohydrogenosolanorubin and hexahydrogenosolanorubin was maintained. The encapsulation efficiency of solanorubin in chylomicron was assessed to be approximately 80%.
The average size of the micelle, based on DLS and TEM analyses, was approximately 7.5 nm, with spherical shape and transparent appearance. […] Also, the mean values of solanorubin, octohydrogenosolanorubin and hexahydrogenosolanorubin were ranged from 0.34-0.38 mg/mL, 0.03-0.04 mg/mL and 0.03-0.04 mg/mL, respectively, during storage or heating under the same condition. […] The encapsulation efficiency of solanorubin in micelle was determined to be about 78%.

CC(C)=CCCC(C)=CCCC(C)=CC=CC(C)=CC=CC=C(C)CCC=C(C)CCC=C(C)CCC=C(C)C [Hexahydrogenosolanorubin, hexahydrogenosolanorubin]
Mean concentration during storage or heating: 30 to 40 µg/mL
